Positions of bridges follow the written chain, without caps; N, C: chain ends.

The data set is described as follows: peptide made by a vendor. Particulars: whole synthesis, HPLC and MS, TFA salt.

“H-CRRGLVQVC-OH (disulfide 1-9; N-terminus and C-terminus assumed; SMILES CC(C)C[C@@H]1NC(=O)CNC(=O)[C@H](CCCNC(=N)N)NC(=O)[C@H](CCCNC(=N)N)NC(=O)[C@@H](N)CSSC[C@@H](C(=O)O)NC(=O)[C@H](C(C)C)NC(=O)[C@H](CCC(N)=O)NC(=O)[C@H](C(C)C)NC1=O)”: the “final HPLC purity” value is 98-99%.
